Source: article PMC7312997
These are yes or no findings as the source states them, for the method shown. Binding seen in cells or lysates may run through a third protein. Some binding calls cover weakened binding; strength is not graded here. Tags and fused reporters may be left off the sequences shown.

Sequences of proteins named here, by UniProt entry; tags and fusion partners are left off.
UniProt P40937: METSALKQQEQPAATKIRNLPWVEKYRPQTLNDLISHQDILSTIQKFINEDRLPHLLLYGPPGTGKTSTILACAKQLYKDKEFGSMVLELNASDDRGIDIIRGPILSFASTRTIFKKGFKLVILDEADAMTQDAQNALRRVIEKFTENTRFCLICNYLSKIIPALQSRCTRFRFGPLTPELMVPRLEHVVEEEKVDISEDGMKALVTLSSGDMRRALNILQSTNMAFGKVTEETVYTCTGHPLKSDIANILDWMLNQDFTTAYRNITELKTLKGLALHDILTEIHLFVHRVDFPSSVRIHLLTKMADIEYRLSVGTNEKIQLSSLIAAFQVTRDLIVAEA
UniProt P12004: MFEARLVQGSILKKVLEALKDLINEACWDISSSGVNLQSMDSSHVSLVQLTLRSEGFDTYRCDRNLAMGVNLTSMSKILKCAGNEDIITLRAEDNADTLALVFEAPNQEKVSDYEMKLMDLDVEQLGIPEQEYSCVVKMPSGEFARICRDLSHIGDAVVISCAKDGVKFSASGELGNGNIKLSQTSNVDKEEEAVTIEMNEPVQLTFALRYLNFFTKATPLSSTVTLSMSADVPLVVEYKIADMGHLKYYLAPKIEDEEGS

T1: MYSM1-Flag (Myb-like Swirm and MPN domain containing 1, 2A-DUB/MYSM1) (UniProt Q5VVJ2)
T1 sequence: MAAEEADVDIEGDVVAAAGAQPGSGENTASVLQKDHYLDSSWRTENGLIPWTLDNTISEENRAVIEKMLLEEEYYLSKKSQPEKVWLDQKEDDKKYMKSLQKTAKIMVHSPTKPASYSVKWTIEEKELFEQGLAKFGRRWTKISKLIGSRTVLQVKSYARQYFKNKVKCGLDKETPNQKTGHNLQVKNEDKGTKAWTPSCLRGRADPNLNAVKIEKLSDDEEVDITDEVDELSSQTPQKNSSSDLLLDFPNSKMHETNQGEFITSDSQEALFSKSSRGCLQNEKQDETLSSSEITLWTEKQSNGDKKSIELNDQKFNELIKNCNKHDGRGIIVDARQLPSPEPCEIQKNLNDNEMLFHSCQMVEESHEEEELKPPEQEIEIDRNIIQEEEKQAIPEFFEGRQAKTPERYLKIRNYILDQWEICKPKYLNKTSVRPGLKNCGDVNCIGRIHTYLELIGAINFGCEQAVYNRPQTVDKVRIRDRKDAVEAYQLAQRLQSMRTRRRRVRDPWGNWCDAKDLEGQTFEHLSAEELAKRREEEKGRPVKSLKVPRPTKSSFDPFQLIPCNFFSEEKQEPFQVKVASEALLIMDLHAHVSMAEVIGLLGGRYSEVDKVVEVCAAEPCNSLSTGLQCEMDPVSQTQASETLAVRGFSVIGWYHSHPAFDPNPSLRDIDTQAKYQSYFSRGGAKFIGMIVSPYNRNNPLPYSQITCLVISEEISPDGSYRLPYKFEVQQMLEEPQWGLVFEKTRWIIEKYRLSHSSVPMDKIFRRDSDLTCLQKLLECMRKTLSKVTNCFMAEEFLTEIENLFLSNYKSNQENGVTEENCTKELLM

T2: DNA helicase HELLS (human (endogenous in 293T)) (UniProt Q9NRZ9)
T2 sequence: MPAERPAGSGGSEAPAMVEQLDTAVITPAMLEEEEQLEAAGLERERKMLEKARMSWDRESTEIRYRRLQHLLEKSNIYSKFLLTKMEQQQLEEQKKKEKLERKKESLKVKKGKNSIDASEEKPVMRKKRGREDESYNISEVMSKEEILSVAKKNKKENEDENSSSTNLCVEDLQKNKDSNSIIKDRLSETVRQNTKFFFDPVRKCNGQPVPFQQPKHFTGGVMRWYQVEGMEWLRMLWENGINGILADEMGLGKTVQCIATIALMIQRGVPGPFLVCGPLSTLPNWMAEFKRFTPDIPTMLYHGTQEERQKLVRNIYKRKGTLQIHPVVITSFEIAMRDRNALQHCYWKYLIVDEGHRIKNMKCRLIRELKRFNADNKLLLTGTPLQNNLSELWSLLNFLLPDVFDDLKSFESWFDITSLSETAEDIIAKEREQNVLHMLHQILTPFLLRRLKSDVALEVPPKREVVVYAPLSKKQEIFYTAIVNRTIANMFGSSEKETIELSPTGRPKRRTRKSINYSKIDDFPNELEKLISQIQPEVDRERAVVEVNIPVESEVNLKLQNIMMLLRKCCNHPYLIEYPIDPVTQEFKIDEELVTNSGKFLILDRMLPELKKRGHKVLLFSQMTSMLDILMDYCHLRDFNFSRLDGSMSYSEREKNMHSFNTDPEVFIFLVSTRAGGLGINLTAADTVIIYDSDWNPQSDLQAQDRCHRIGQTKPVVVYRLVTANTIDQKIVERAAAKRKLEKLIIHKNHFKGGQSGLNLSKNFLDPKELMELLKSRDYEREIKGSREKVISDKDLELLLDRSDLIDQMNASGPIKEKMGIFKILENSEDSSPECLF

B1: DNA helicase HELLS (enzyme, UniProt Q9NRZ9 1-838)
chain: T2 sequence
B2: MYSM1-Flag (Myb-like Swirm and MPN domain containing 1, 2A-DUB/MYSM1) (enzyme, UniProt Q5VVJ2 1-828)
chain: T1 sequence

Legend:
[1] = biological target: T1, MYSM1-Flag (Myb-like Swirm and MPN domain containing 1, 2A-DUB/MYSM1); experiment: co-IP; anti-Flag antibody (F1804) vs. control IgG on Protein G Dynabeads, overnight with 200 µg lysate of MYSM1-Flag transfected 293T cells in PBS-T at 4 °C; cells treated with etoposide or DMSO; Western blot of the eluate
[2] = biological target: T2, DNA helicase HELLS (human (endogenous in 293T)); experiment: co-IP; reverse co-IP with antibodies against HELLS, PCNA or RFC5 vs. control IgG in lysates of MYSM1-Flag transfected 293T cells treated with etoposide or DMSO for 6 h; Western blot (MYSM1 detected by anti-Flag)
[3] = biological target: replication factor C subunit RFC5 (human (endogenous in 293T)) (UniProt P40937); experiment: as above
[4] = biological target: PCNA (human (endogenous in 293T)) (UniProt P12004); experiment: as above

Molecule	binding [1]	binding [2]	binding [3]	binding [4]
replication factor C subunit RFC5 (from UniProt P40937 1-340)	binds	binds	–	–
PCNA (from UniProt P12004 1-261)	binds	binds	–	–
B1	binds	–	binds	–
B2	–	binds	binds	binds
